According to patent US20230340098A1:
No constants are given. Whether binding was seen depends on the method and setting. Some results given as binding are weak or reduced against the parent protein; the word gives no strength.

Amino acid sequences for entries named in this document (tags omitted). A change or cut given only in a name is not applied to a line headed by its entry. Residues count along the entry.
UniProt Q14392, residues 20-627: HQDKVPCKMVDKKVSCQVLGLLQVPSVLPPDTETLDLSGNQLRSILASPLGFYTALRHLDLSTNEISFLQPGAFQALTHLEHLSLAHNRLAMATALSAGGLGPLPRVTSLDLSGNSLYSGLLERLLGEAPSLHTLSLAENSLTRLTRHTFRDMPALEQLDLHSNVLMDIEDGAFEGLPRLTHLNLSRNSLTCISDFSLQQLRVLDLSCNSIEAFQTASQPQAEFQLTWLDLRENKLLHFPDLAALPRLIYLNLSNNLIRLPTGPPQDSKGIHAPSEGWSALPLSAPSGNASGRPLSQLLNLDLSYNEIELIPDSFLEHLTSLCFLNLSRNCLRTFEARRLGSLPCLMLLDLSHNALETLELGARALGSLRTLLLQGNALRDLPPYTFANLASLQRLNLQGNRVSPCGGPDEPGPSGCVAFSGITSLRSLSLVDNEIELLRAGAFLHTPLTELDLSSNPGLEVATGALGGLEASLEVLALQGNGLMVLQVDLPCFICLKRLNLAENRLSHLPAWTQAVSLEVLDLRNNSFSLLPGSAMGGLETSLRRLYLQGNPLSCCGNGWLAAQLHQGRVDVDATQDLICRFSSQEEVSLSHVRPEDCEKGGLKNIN
UniProt P01137: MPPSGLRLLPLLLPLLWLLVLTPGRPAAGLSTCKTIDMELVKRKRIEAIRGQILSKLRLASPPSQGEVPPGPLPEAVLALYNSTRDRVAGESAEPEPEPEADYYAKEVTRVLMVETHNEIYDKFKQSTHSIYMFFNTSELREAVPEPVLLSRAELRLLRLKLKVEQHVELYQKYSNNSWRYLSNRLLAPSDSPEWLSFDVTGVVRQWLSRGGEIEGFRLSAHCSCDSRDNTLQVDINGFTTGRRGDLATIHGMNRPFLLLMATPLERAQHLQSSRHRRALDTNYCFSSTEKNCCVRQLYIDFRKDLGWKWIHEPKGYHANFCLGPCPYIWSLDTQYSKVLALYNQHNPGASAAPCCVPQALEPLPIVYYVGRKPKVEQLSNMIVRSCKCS

Experiments:
[1] = target: T1, human GARP/TGFβ1 complex (protein used in ELISA and Octet) (human) (UniProt Q14392+P01137); assay: Octet
[2] = target: human GARP protein not in any GARP/TGFβ1 complex (protein used in ELISA and Octet) (human) (UniProt Q14392); assay: Octet
[3] = target: human GARP protein not in any GARP/TGFβ1 complex (protein used in ELISA and Octet) (human) (UniProt Q14392); assay: ELISA, coated GARP protein
[4] = target: T1, human GARP/TGFβ1 complex (protein used in ELISA and Octet) (human); assay: ELISA, coated complex

Measured: binding

B1: Clone hGA17 (antibody, human IgG1, kappa, V domains shown)
VH: QVQLVQSGAEVKKPGASVKVSCKASGFNIKDTYFHWVRQAPGQGLEWMGRIDPTNGNGRYAQKFQGRVTMTRDTSTSTVYMELSSLRSEDTAVYYCATSTGTGYFALVYWGQGTTVTVSS
VL: DIQLTQSPSFLSASVGDRVTITCKASQNVGSAVAWYQQKPGKAPKLLIYWSSTRHTGVPSRFSGSGSGTEFTLTISSLQPEDFATYYCQQYSNYPLTFGGGTKLEIKR
binds: [1] | [2] | [3] | [4]
